Source: doi:10.1101/2022.04.07.487451

How the values were obtained:
Assay in all cases: co-IP
[1] = target: T1, NAP1-GFP (Arabidopsis thaliana) (UniProt Q5S2C4)
T1 sequence: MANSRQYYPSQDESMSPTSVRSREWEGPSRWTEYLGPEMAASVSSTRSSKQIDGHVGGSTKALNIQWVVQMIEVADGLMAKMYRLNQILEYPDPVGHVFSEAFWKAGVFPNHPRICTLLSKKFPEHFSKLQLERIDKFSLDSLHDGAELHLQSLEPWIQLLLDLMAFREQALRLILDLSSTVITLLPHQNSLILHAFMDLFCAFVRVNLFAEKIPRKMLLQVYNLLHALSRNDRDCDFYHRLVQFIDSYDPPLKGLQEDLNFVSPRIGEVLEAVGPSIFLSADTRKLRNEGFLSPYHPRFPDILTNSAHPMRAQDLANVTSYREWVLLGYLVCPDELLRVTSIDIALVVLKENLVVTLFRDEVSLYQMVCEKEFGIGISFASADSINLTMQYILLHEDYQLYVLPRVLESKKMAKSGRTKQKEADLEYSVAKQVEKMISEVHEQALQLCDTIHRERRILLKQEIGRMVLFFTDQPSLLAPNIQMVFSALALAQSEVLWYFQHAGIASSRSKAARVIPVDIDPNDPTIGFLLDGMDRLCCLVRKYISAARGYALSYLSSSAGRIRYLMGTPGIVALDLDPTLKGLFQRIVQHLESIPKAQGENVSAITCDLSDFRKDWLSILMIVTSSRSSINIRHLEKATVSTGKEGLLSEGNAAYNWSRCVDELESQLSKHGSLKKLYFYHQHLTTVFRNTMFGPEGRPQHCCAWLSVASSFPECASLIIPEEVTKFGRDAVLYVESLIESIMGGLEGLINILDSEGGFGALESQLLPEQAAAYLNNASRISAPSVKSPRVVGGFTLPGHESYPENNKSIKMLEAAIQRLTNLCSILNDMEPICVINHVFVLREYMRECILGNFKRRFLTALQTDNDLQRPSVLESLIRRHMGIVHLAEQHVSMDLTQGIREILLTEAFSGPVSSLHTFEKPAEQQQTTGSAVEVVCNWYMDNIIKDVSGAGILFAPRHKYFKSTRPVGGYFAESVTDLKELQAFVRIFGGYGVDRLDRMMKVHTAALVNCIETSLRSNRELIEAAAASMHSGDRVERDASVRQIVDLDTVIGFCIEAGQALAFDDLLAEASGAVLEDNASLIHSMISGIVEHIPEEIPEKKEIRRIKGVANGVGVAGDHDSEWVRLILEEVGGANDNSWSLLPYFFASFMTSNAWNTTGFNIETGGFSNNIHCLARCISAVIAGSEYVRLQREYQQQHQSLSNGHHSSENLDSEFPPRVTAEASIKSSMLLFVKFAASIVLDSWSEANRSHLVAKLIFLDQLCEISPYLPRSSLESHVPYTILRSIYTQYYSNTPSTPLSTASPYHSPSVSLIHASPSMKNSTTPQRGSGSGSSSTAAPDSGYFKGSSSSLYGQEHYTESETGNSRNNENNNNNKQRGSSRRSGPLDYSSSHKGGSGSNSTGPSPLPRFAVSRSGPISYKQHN

[2] = target: GFP-ARPC2 (co-expressed with ATG8f-mRFP in Arabidopsis) (not stated (Arabidopsis thaliana or tobacco ARPC2 construct))
[3] = target: GFP-ARPC5 (in tobacco leaves) (Arabidopsis thaliana)

Q: With AtARPC5-mCherry (Arabidopsis thaliana) as the molecule, how does the binding [1] read?
A: Its binding is “binds”.

B1: ATG8f-mRFP (in Arabidopsis) (protein, UniProt Q8VYK7 1-117)
chain: MAKSSFKQEHDLEKRRAEAARIREKYPDRIPVIVEKAEKSDIPTIDKKKYLVPADLTVGQFVYVIRKRIKLSAEKAIFIFVDNVLPPAGALMSSVYEEKKDDDGFLYVTYSGENTFG
Q: Which binding [2] does the source give for B1 here?
A: Its binding is “binds”.

B2: ATG8f-mRFP (in tobacco leaves) (protein, UniProt Q8VYK7 1-117)
chain: MAKSSFKQEHDLEKRRAEAARIREKYPDRIPVIVEKAEKSDIPTIDKKKYLVPADLTVGQFVYVIRKRIKLSAEKAIFIFVDNVLPPAGALMSSVYEEKKDDDGFLYVTYSGENTFG
Q: B2 was tested. Which binding [3] did it give?
A: The binding was “binds”.

No constants are given. Whether binding was seen depends on the method and setting. Binding seen in cells or lysates may run through a third protein. Binding can be weak; no strength is given. For part of these data: Where a sequence is shown, tags or fusion partners need not be part of it.
